Values from PubChem BioAssay AID1224830 (NIAID, 2016)
In all, the deposit lists about 18,000 reagents; this is an unselected part. About 2,900 of them (16%) were called active. 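Calls are made per well; low scores hint the gene aids the LPS response, high scores that it dampens it.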 A number with no mark means an inactive call. Repeated entries: four replicate wells of each siRNA pool.

Aim: 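Regulators of TLR4 signalling towards TNF-alpha in macrophage-like cells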 (primary screen)
Cells: human THP-1 monocytic leukaemia cells, TNF dual-luciferase reporter clone, PMA-differentiated to macrophage-like cells
Reagents: siRNA pool against human genes, 50 nM
Duration: LPS for 4 h, given about 3 days after siRNA transfection
Treatment: bacterial LPS (TLR4 ligand), 10 ng/ml
Measurement: 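TNF firefly reporter luminescence divided by renilla, normalised to the plate median, then turned into a robust z-score for each replicate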
Direction: TNF reporter robust z-score: higher = stronger TNF reporter response to LPS
Hit rule: 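a well is active when its z-score exceeds 2.8 or falls below -1.5; control wells carry no call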

gene symbol | TNF reporter robust z-score
CT45A1 (GeneID 541466) | 1.2
CT45A1 (GeneID 541466) | 0.98
CT45A1 (GeneID 541466) | 1.02
CT45A1 (GeneID 541466) | 0.87
SLC25A20 (GeneID 788) | 0.4
SLC25A20 (GeneID 788) | 1.33
SLC25A20 (GeneID 788) | 1.4
SLC25A20 (GeneID 788) | 1.85
DDX10 (GeneID 1662) | -0.77
DDX10 (GeneID 1662) | -0.81
DDX10 (GeneID 1662) | -0.71
DDX10 (GeneID 1662) | -1.24
CITED4 (GeneID 163732) | 2.6
CITED4 (GeneID 163732) | 1.93
CITED4 (GeneID 163732) | 1.76
CITED4 (GeneID 163732) | 2.81 (active)
CDR2 (GeneID 1039) | -0.45
CDR2 (GeneID 1039) | 0.63
CDR2 (GeneID 1039) | 0.03
CDR2 (GeneID 1039) | 0.83
B3GNT7 (GeneID 93010) | 0.52
B3GNT7 (GeneID 93010) | -0.12
B3GNT7 (GeneID 93010) | -0.59
B3GNT7 (GeneID 93010) | -0.35
WNT16 (GeneID 51384) | -0.41
WNT16 (GeneID 51384) | 1.18
WNT16 (GeneID 51384) | -0.55
WNT16 (GeneID 51384) | 1.04
TLX1NB (GeneID 100038246) | 0.23
TLX1NB (GeneID 100038246) | 1.47
TLX1NB (GeneID 100038246) | 0.46
TLX1NB (GeneID 100038246) | 0.22
TMEM108 (GeneID 66000) | -0.4
TMEM108 (GeneID 66000) | -0.33
TMEM108 (GeneID 66000) | -0.21
TMEM108 (GeneID 66000) | 0.54
RGS2 (GeneID 5997) | -0.1
RGS2 (GeneID 5997) | -0.25
RGS2 (GeneID 5997) | 0.34
RGS2 (GeneID 5997) | 0.44
AP2M1 (GeneID 1173) | -1.03
AP2M1 (GeneID 1173) | 0.28
AP2M1 (GeneID 1173) | -0.27
AP2M1 (GeneID 1173) | 0.44
CDC34 (GeneID 997) | 0.03
CDC34 (GeneID 997) | -0.95
CDC34 (GeneID 997) | -1.23
CDC34 (GeneID 997) | -0.5
TSPO2 (GeneID 222642) | -0.29
TSPO2 (GeneID 222642) | 0.67
TSPO2 (GeneID 222642) | 1.19
TSPO2 (GeneID 222642) | 0.37

Already shown: 8 of the entries above.
gene symbol | TNF reporter robust z-score
B3GNT7 (GeneID 93010) | -0.12
B3GNT7 (GeneID 93010) | -0.59
B3GNT7 (GeneID 93010) | -0.35
WNT16 (GeneID 51384) | -0.41
WNT16 (GeneID 51384) | 1.18
WNT16 (GeneID 51384) | -0.55
WNT16 (GeneID 51384) | 1.04
TLX1NB (GeneID 100038246) | 0.23

The results go on.
gene symbol | TNF reporter robust z-score
JADE3 (GeneID 9767) | -2.59 (active)
JADE3 (GeneID 9767) | -0.39
JADE3 (GeneID 9767) | -1.5
JADE3 (GeneID 9767) | -0.18
PTGS1 (GeneID 5742) | 2.21
PTGS1 (GeneID 5742) | 3.07 (active)
PTGS1 (GeneID 5742) | 1.32
PTGS1 (GeneID 5742) | 2.05
SPACA5B (GeneID 729201) | -0.57
SPACA5B (GeneID 729201) | 0.39
SPACA5B (GeneID 729201) | -0.65
SPACA5B (GeneID 729201) | 0.19
MYLK2 (GeneID 85366) | -1.94 (active)
MYLK2 (GeneID 85366) | -0.4
MYLK2 (GeneID 85366) | -0.1
MYLK2 (GeneID 85366) | -1.26
BPTF (GeneID 2186) | -0.25
BPTF (GeneID 2186) | 0.91
BPTF (GeneID 2186) | -0.23
BPTF (GeneID 2186) | -0.06
MAP6 (GeneID 4135) | 0.91
MAP6 (GeneID 4135) | 1.38
MAP6 (GeneID 4135) | 0.64
MAP6 (GeneID 4135) | 2.73
CBLN1 (GeneID 869) | -0.88
CBLN1 (GeneID 869) | -0.49
CBLN1 (GeneID 869) | -0.02
CBLN1 (GeneID 869) | 0.4
PIH1D2 (GeneID 120379) | 0.22
PIH1D2 (GeneID 120379) | 5.96 (active)
PIH1D2 (GeneID 120379) | 4.48 (active)
PIH1D2 (GeneID 120379) | 2.24
HNMT (GeneID 3176) | -0.61
HNMT (GeneID 3176) | 0.99
HNMT (GeneID 3176) | 0.23
HNMT (GeneID 3176) | 0.72
JAG2 (GeneID 3714) | -0.9
JAG2 (GeneID 3714) | -0.53
JAG2 (GeneID 3714) | -0.26
JAG2 (GeneID 3714) | 0.18
PIP5K1C (GeneID 23396) | -1.23
PIP5K1C (GeneID 23396) | -0.52
PIP5K1C (GeneID 23396) | -0.63
PIP5K1C (GeneID 23396) | -0.97
NRAS (GeneID 4893) | 0.95
NRAS (GeneID 4893) | 1.07
NRAS (GeneID 4893) | 1.25
NRAS (GeneID 4893) | 1.67
ATIC (GeneID 471) | 1.41
ATIC (GeneID 471) | 1.99
ATIC (GeneID 471) | 1.07
ATIC (GeneID 471) | 1.81
C1R (GeneID 715) | 0.48
C1R (GeneID 715) | 0.14
C1R (GeneID 715) | 0.42
C1R (GeneID 715) | 0.69
ITGAX (GeneID 3687) | -0.19
ITGAX (GeneID 3687) | 0.19
ITGAX (GeneID 3687) | -0.82
ITGAX (GeneID 3687) | 0.61
